Reference: article PMC10687581
These are yes or no findings as the source states them, for the method shown. In cells and extracts the contact can be indirect.

Chains of the proteins cited; added tags and fusions are not shown.
UniProt P46937: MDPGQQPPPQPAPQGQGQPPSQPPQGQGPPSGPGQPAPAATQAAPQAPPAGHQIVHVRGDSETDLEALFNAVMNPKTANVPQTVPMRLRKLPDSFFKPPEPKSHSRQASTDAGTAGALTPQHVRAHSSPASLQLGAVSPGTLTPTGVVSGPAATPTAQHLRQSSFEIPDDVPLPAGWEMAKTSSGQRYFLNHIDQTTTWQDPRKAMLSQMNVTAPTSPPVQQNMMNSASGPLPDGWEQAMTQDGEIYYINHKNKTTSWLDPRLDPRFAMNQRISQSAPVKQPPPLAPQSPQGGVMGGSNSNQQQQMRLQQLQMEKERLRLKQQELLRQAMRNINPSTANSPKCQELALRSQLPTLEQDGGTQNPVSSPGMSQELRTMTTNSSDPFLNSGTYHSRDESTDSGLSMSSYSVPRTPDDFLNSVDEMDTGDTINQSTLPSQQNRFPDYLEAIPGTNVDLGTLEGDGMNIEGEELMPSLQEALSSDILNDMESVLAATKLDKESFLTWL
UniProt Q99717: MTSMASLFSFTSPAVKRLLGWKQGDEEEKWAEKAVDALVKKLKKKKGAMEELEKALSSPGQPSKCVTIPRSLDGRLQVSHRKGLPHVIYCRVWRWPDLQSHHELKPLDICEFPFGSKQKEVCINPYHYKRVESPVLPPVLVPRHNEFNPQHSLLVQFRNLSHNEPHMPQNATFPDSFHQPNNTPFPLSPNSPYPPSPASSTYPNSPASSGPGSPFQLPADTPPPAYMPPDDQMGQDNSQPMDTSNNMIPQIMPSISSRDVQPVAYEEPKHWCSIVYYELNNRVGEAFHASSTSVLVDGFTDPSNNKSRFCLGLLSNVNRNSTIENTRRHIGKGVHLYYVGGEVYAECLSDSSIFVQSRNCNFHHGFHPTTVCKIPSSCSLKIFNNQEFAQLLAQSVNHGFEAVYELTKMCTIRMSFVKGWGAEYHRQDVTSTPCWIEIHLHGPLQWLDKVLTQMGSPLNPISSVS

Target: Yes-associated protein (YAP) (human (endogenous in Huh7)) (UniProt P46937)
Experiment: co-IP; endogenous proteins in Huh7 lysates (RIPA buffer); cells treated with XMU-MP-1 or DMSO for 12 h; lysates incubated with monoclonal antibodies against YAP or SMAD overnight at 4 °C, protein A/G agarose beads, 3 washes with PBS, Western blot

binding: no binding
Substance: SMAD5 (from UniProt Q99717 1-465)
